The list does not hold the whole screen: it gathers some chemical classes. Other doses and runs of a compound may be missing. T/C gives the treated animals as a percentage of the vehicle group. Some doses have a count of surviving animals in place of a T/C: the source files T/C as zero there, which appears to mark a toxic dose or a test without result, not a measured value. Some survivor counts are full or nearly so, which does not show that the dose was tolerated: survival well below the control is almost never listed, so the zero probably covers shortened survival too. Survivors were counted at the toxicity check, usually on the fifth day, unless a day is given; later deaths do not show. Schedules are NCI's codes, taken here to give the interval after Q, in days (D) or hours (H), and the number of doses after X. Some schedule codes hold Z or #, which are not explained here. Some entries hold several experiments; the results are listed from low to high. Where survival is the endpoint, this PubChem deposit counts one and a half times the control or more as active, and values a quarter to a half above the control carry no call in these data; other NCI protocols may use other cut-offs.
Test system: BDF1 mice, L1210 terephthalanilide-resistant leukemia ip, survival T/C
Assay: NCI In Vivo Anticancer Drug Screen. Data for tumor model L1210 Leukemia resistant to A Terephthalanilide; NSC 38280 (intraperitoneal) in B6D2F1 (BDF1) mice
Details: T/C endpoint: mean survival time, higher T/C = longer survival
Description: The antitumor activity of compounds was measured in mice bearing transplantable tumors. Survival or tumor size were measured and the results are expressed as the measurement made in the treated group (T) divided by the measurement made in the vehicle treated control group (C). The tumor model used in this assay is L1210 Leukemia resistant to A Terephthalanilide; NSC 38280 (intraperitoneal) in B6D2F1 (BDF1) mice

## Cc1[nH]c(=O)[nH]c(=O)c1N(CCCl)CCCl
dose: 0.25 mg/kg/injection, schedule: Q01DX010 (ip), vehicle: saline
  T/C: 108 % of control
dose: 0.5 mg/kg/injection, schedule: Q01DX010 (ip), vehicle: saline
  T/C: 104 % of control
dose: 1.0 mg/kg/injection, schedule: Q01DX010 (ip), vehicle: saline
  T/C: 123 % of control
dose: 2.0 mg/kg/injection, schedule: Q01DX010 (ip), vehicle: saline
  survivor count: 6 of 6
dose: 7.5 mg/kg/injection, schedule: Q01DX Z (ip), vehicle: alkali diluted with saline
  T/C: 119 % of control
dose: 10.0 mg/kg/injection, schedule: Q01DX Z (ip), vehicle: alkali diluted with saline
  T/C: 133 % of control
dose: 15.0 mg/kg/injection, schedule: Q01DX Z (ip), vehicle: alkali diluted with saline
  survivor count: 6 of 6
dose: 20.0 mg/kg/injection, schedule: Q01DX Z (ip), vehicle: alkali diluted with saline
  survivor count: 6 of 6

## NC1CCCCC1.O=P(O)(N(CCCl)CCCl)N1CC1
dose: 1.25 mg/kg/injection, schedule: Q01DX010 (ip), vehicle: saline
  T/C: 101 % of control
dose: 2.5 mg/kg/injection, schedule: Q01DX010 (ip), vehicle: saline
  T/C: 109 and 160 % of control
dose: 5.0 mg/kg/injection, schedule: Q01DX010 (ip), vehicle: saline
  T/C: 125 and 177 % of control
dose: 10.0 mg/kg/injection, schedule: Q01DX010 (ip), vehicle: saline
  T/C: 100 and 150 % of control
dose: 20.0 mg/kg/injection, schedule: Q01DX010 (ip), vehicle: saline
  survivor count: 6 of 6

## CN(N=O)C(=N)N[N+](=O)[O-]
dose: 8.0 mg/kg/injection, schedule: Q01DX010 (ip), vehicle: saline
  T/C: 122 and 135 % of control
dose: 16.0 mg/kg/injection, schedule: Q01DX010 (ip), vehicle: saline
  T/C: 102 and 126 % of control
dose: 32.0 mg/kg/injection, schedule: Q01DX010 (ip), vehicle: saline
  survivor count: 6 of 6
dose: 64.0 mg/kg/injection, schedule: Q01DX010 (ip), vehicle: saline
  survivor count: 1 of 6 and 6 of 6

Source: PubChem BioAssay AID282 (DTP/NCI, 2004)
